Reference: article PMC8061361
Results are given in words; binding and its absence hold for the method and conditions named. Binding seen in cells or lysates may run through a third protein. A result given as binding can be weak or reduced; the word gives no strength. Tags and fused reporters may be left off the sequences shown. Values belong to the molecule of their own block, whether it stands above or below them.

By UniProt entry, the sequences of proteins in these tests, tags left out. Where a name states a change or a piece, a line headed by the entry shows the natural chain unless it says otherwise.
UniProt O95831: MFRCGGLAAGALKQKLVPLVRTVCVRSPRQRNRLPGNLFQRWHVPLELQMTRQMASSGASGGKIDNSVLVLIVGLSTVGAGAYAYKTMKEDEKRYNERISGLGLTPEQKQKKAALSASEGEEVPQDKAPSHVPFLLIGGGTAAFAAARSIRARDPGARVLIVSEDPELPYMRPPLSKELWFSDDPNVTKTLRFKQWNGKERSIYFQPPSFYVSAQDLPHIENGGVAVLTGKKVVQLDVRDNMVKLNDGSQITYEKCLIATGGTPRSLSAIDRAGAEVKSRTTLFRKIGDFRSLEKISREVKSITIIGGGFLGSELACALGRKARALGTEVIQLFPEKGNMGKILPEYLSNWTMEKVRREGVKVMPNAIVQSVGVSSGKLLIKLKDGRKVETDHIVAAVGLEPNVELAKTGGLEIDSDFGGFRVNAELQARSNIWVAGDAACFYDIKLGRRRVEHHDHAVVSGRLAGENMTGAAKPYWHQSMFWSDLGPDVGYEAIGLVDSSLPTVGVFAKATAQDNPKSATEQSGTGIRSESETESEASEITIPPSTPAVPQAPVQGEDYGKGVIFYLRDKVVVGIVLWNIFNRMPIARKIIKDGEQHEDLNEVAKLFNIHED

Legend:
[1] = target: T1, Flag-tagged OTU deubiquitinase 1 (OTUD1) (UniProt Q5VV17); experiment: pull-down; in vitro pulldown (legend: in vitro co-IP) with anti-Flag magnetic beads; GST-tagged protein purified from E. coli, preparation of the Flag-tagged protein not told
T1 sequence: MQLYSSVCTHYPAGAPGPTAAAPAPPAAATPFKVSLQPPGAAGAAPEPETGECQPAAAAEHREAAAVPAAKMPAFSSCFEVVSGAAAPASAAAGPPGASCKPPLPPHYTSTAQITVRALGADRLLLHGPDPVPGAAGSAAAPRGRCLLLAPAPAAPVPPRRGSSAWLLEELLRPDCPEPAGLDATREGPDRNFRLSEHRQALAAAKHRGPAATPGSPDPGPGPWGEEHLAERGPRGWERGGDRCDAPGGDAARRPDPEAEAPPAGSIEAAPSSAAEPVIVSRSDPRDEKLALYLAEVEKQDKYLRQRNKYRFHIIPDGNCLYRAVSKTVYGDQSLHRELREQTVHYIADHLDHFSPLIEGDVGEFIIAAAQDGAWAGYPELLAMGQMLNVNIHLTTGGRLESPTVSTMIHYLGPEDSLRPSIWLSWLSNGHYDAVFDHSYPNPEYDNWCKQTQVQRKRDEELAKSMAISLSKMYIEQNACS

V5-tagged OTUD1 = target: T2, V5-tagged OTUD1 (UniProt Q5VV17); experiment: co-IP; 293T cells cotransfected with tagged OTUD1 and tagged AIF; anti-Flag or anti-V5 magnetic beads, overnight at 4 °C; immunoblot
T2 sequence: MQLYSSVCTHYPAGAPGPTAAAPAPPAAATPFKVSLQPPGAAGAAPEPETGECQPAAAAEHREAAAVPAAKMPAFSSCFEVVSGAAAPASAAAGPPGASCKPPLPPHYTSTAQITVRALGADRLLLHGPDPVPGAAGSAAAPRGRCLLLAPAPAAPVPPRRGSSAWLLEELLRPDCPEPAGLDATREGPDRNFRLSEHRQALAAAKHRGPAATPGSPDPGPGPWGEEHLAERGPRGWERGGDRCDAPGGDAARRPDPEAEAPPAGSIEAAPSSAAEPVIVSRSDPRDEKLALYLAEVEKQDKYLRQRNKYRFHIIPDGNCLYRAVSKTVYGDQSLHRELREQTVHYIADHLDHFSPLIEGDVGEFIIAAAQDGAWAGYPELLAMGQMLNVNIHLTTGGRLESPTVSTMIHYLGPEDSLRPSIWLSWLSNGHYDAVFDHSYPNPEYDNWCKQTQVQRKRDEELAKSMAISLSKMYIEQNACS

[2] = target: T3, V5-tagged OTUD1 C320A (inactivated mutant) (UniProt Q5VV17); experiment: as above
T3 sequence: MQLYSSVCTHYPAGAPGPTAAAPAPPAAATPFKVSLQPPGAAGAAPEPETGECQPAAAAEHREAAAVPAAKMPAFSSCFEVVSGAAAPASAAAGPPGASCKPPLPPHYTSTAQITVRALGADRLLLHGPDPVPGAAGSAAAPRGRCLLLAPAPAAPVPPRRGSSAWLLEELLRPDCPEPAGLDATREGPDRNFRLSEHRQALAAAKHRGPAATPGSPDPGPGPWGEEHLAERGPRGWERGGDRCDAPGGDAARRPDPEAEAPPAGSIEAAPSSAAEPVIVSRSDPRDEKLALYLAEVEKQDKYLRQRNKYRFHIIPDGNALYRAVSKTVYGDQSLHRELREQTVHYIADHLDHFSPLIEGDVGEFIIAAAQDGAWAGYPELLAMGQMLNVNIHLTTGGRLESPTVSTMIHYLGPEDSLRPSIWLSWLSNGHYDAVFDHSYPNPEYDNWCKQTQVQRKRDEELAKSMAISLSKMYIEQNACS

[3] = target: Ala-rich domain of OTUD1 (truncated mutant); experiment: co-IP; co-IP with truncated mutants of OTUD1, AIF and DCAF10; cells, tags and beads only in Figures S3 and S7

binding [1]: binds
Molecule: GST-tagged AIF (from UniProt O95831)

binding (V5-tagged OTUD1): binds | binding [2]: binds
Molecule: Myc-tagged AIF (from UniProt O95831)

binding [3]: binds
B1: DCAF10 (co-IPs of Figure 6E-G and Figure S7; tag not told in the text) (protein, UniProt Q5QP82 1-559)
chain: MFPFGPHSPGGDGSAGAGAEEPTPHEGQAAATGPPSPLHPGADATHPPPPARSPRRPGAPSLSPAPRSGELGLPGAPESSTASAPGEPSPPSPPCRRPGPDCRAKSRGRHGLGAGLGGPGARLFGWLKERSLGRGLFVDPARDNFRTMTSLYGSIHPADSVYLSTRTHGAVFNLEYSPDGSVLTVACEQTEVLLFDPISSKHIKTLSEAHEDCVNNIRFLDNRLFATCSDDTTIALWDLRKLNTKVCTLHGHTSWVKNIEYDTNTRLLVTSGFDGNVIIWDTNRYTEDGCPHKKFFHTRFLMRMRLTPDCSKMLISTSSGYLLILHDLDLTKSLEVGSYPILRARRTTSSSDLTTSSSSSGPRVSGSPCHHSDSNSSEKHMSRASQREGVSPRNSLEVVTPEVLGESDHGNCITSLQLHPKGWATLLRCSSNSDDEECTCVYEFQEGAPVRPVSPRCSLRLTHYIEEANVGRGYIKELCFSPDGRMISSPHGYGIRLLGFDKQCSELVDCLPKEASPLRVIRSLYSHNDVVLTTKFSPTHCQIASGCLSGRVSLYQPKF
